Data as given in PubChem BioAssay AID1259425 (University of Nebraska Medical Center, 2018).
Here is a random part of about 14,000 deposited reagents. Reagents against one gene are numbered here. Reagent sequences are not shown. Not stated in the record: the time to read-out.

Aim: 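Compare each knockdown with KSR1 silencing using changes in marker transcripts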 (primary screen)
Cells: HCT116 human colon cancer cells
Reagent: siRNA pool against human genes, 50 nM siRNA
Read-out: 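mRNA of six signature genes measured together by branched-DNA assay after 50 nM siRNA pool, blank removed, divided by geometric mean of two housekeeping genes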
Scale: BNIP3L mRNA: higher = more BNIP3L transcript after knockdown; NDRG1 mRNA: higher = more NDRG1 transcript after knockdown; BNIP3 mRNA: higher = more BNIP3 transcript after knockdown; ALDOC mRNA: higher = more ALDOC transcript after knockdown; ACSL5 mRNA: higher = more ACSL5 transcript after knockdown

The opening 2 records as a preview:
gene knocked down	reagent no.	BNIP3L mRNA, set 1	NDRG1 mRNA, set 1	BNIP3 mRNA, set 1	ALDOC mRNA, set 1	ACSL5 mRNA, set 1
SLC31A1	1	0.0949	0.554	0.3	0.0189	0.312
MFSD2A (MFSD2 lysolipid transporter A, lysophospholipid)	1	0.191	0.207	0.552	0.0978	0.313

The listing, from the start:
gene knocked down	reagent no.	BNIP3L mRNA, set 1	NDRG1 mRNA, set 1	BNIP3 mRNA, set 1	ALDOC mRNA, set 1	ACSL5 mRNA, set 1
SLC31A1	1	0.0949	0.554	0.3	0.0189	0.312
MFSD2A (MFSD2 lysolipid transporter A, lysophospholipid)	1	0.191	0.207	0.552	0.0978	0.313
RFX5 (regulatory factor X5)	1	0.115	0.104	0.197	0.00325	0.178
PACSIN2 (protein kinase C and casein kinase substrate in neurons 2)	1	0.165	0.176	0.319	0.0161	0.112
POLR1B (RNA polymerase I subunit B)	1	0.477	0.667	0.498	0.0476	0.379
SLC30A3	1	0.134	0.347	0.337	0.0309	0.12
SNCB (synuclein beta)	1	0.107	0.282	0.294	0.0502	0.185
H2AB3 (H2A.B variant histone 3)	1	0.0718	0.0732	0.2	0.0576	0.375
CHIC2 (cysteine rich hydrophobic domain 2)	1	0.121	0.179	0.249	0.0189	0.193
PSMG3 (proteasome assembly chaperone 3)	1	0.168	0.156	0.249	0.0906	0.176
EEF1D (eukaryotic translation elongation factor 1 delta)	1	0.0693	0.372	0.45	0.0316	0.163
RNF213 (ring finger protein 213)	1	1.08	5.16	3.12	1.12	0.0912
RNF213 (ring finger protein 213)	2	0.0886	0.446	0.441	0.0177	0.307
MYO16 (myosin XVI)	1	0.0688	0.381	0.248	0.0157	0.166
COPS7A (COP9 signalosome subunit 7A)	1	0.0937	0.146	0.201	0.029	0.197
ADAM9 (ADAM metallopeptidase domain 9)	1	0.244	0.19	0.435	0.0232	0.28
FAM156A (family with sequence similarity 156 member A)	1	0.0776	0.134	0.435	0.0295	0.169
ACP4 (acid phosphatase 4)	1	0.0789	0.127	0.246	0.0121	0.125
PRY (PTPN13 like Y-linked)	1	0.27	0.931	0.512	0.0448	0.292
TGIF2LY (TGFB induced factor homeobox 2 like Y-linked)	1	0.0474	0.0929	0.131	0.0136	0.154
